From patent US8772536B2, “Proteasome inhibitors” (Millennium Pharmaceuticals, Inc., priority 2007, dated 2014)
Some results were stated once for a whole list of compounds, not compound by compound.

Chains of the proteins cited; added tags and fusions are not shown. Lines headed by an entry give the natural chain unless they say otherwise; changes in a name come on top.
UniProt P28074: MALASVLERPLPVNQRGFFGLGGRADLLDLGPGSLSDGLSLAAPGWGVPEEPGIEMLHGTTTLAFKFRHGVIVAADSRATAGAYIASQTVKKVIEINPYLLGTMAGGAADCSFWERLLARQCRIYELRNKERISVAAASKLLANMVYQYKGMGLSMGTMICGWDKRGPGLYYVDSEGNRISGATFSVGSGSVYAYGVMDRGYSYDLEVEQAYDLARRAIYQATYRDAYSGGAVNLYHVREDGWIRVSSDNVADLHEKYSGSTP

Biological target: T1, human 20S proteasome (Homo sapiens, UniProt P28074)
T1 construct: purchased Boston Biochem
Test: 20S Proteasome Assay
Assay type: biochemical
Conditions: human PA28 activator, Ac-WLA-AMC (β5 selective substrate), 37° C.

Row | IC50 | Structure (SMILES)
1 | < 50 nM | CC(C)C[C@H](NC(=O)CNC(=O)c1ccc(Cl)cc1F)B(O)O [Compound I-18, [(1R)-1-({[(4-chloro-2-fluorobenzoyl)amino]acetyl}amino)-3-methylbutyl]boronic acid]
2 | < 50 nM | CC(C)C[C@H](NC(=O)CNC(=O)c1ccc(F)c(F)c1)B(O)O [Compound I-9, [(1R)-1-({[(3,4-difluorobenzoyl)amino]acetyl}amino)-3-methylbutyl]boronic acid]
3 | < 50 nM | CC(C)C[C@H](NC(=O)CNC(=O)c1cc(F)ccc1F)B(O)O [Compound I-4, [(1R)-1-({[(2,5-difluorobenzoyl)amino]acetyl}amino)-3-methylbutyl]boronic acid]
4 | < 50 nM | CC(C)C[C@H](NC(=O)CNC(=O)c1cc(F)ccc1Cl)B(O)O [Compound I-7, [(1R)-1-({[(2-chloro-5-fluorobenzoyl)amino]acetyl}amino)-3-methylbutyl]boronic acid]
5 | < 50 nM | CC(C)C[C@H](NC(=O)CNC(=O)c1ccc(F)cc1Cl)B(O)O [Compound I-14, [(1R)-1-({[(2-chloro-4-fluorobenzoyl)amino]acetyl}amino)-3-methylbutyl]boronic acid]
6 | < 50 nM | CC(C)C[C@H](NC(=O)CNC(=O)c1cc(Cl)cc(Cl)c1)B(O)O [Compound I-21, [(1R)-1-({[(3,5-dichlorobenzoyl)amino]acetyl}amino)-3-methylbutyl]boronic acid]
7 | < 50 nM | CC(C)C[C@H](NC(=O)CNC(=O)c1cccc(F)c1F)B(O)O [Compound I-1, [(1R)-1-({[(2,3-difluorobenzoyl)amino]acetyl}amino)-3-methylbutyl]boronic acid]
8 | < 50 nM | CC(C)C[C@H](NC(=O)CNC(=O)c1ccc(Cl)cc1Cl)B(O)O [Compound I-20, [(1R)-1-({[(2,4-dichlorobenzoyl)amino]acetyl}amino)-3-methylbutyl]boronic acid]
9 | < 50 nM | CC(C)C[C@H](NC(=O)CNC(=O)c1cccc(F)c1)B(O)O [Compound I-13, [(1R)-1-({[(3-fluorobenzoyl)amino]acetyl}amino)-3-methylbutyl]boronic acid]
10 | < 50 nM | CC(C)C[C@H](NC(=O)CNC(=O)c1ccc(Cl)c(Cl)c1)B(O)O [Compound I-12, [(1R)-1-({[(3,4-dichlorobenzoyl)amino]acetyl}amino)-3-methylbutyl]boronic acid]
11 | < 50 nM | CC(C)C[C@H](NC(=O)CNC(=O)c1ccccc1F)B(O)O [Compound I-6, [(1R)-1-({[(2-fluorobenzoyl)amino]acetyl}amino)-3-methylbutyl]boronic acid]
12 | < 50 nM | CC(C)C[C@H](NC(=O)CNC(=O)c1ccccc1Cl)B(O)O [Compound I-16, [(1R)-1-({[(2-chlorobenzoyl)amino]acetyl}amino)-3-methylbutyl]boronic acid]
13 | < 50 nM | CC(C)C[C@H](NC(=O)CNC(=O)c1cc(Cl)ccc1F)B(O)O [Compound I-2, [(1R)-1-({[(5-chloro-2-fluorobenzoyl)amino]acetyl}amino)-3-methylbutyl]boronic acid]
14 | < 50 nM | CC(C)C[C@H](NC(=O)CNC(=O)c1cc(F)cc(F)c1)B(O)O [Compound I-3, [(1R)-1-({[(3,5-difluorobenzoyl)amino]acetyl}amino)-3-methylbutyl]boronic acid]
15 | < 50 nM | CC(C)C[C@H](NC(=O)CNC(=O)c1ccccc1Br)B(O)O [Compound I-5, [(1R)-1-({[(2-bromobenzoyl)amino]acetyl}amino)-3-methylbutyl]boronic acid]
16 | < 50 nM | CC(C)C[C@H](NC(=O)CNC(=O)c1ccc(F)cc1F)B(O)O [Compound I-17, [(1R)-1-({[(2,4-difluorobenzoyl)amino]acetyl}amino)-3-methylbutyl]boronic acid]
17 | < 50 nM | CC(C)C[C@H](NC(=O)CNC(=O)c1cccc(Cl)c1)B(O)O [Compound I-10, [(1R)-1-({[(3-chlorobenzoyl)amino]acetyl}amino)-3-methylbutyl]boronic acid]
18 | < 50 nM | CC(C)C[C@H](NC(=O)CNC(=O)c1ccc(Cl)cc1)B(O)O [Compound I-19, [(1R)-1-({[(4-chlorobenzoyl)amino]acetyl}amino)-3-methylbutyl]boronic acid]
19 | < 50 nM | CC(C)C[C@H](NC(=O)CNC(=O)c1ccc(F)cc1)B(O)O [Compound I-8, [(1R)-1-({[(4-fluorobenzoyl)amino]acetyl}amino)-3-methylbutyl]boronic acid]
20 | < 50 nM | CC(C)C[C@H](NC(=O)CNC(=O)c1cccc(Cl)c1Cl)B(O)O [Compound I-15, [(1R)-1-({[(2,3-dichlorobenzoyl)amino]acetyl}amino)-3-methylbutyl]boronic acid]
